Experimental data as given in PubChem BioAssay AID248 (DTP/NCI, 2004).
The list does not hold the whole screen: it is rich in T/C values a quarter to a half above the control, in often repeated tests (any T/C) and in doses without a T/C. Further doses and runs are listed elsewhere. T/C is the treated group as % of the vehicle group. Some doses have a count of surviving animals in place of a T/C: the source holds a T/C of zero for them, seemingly a mark for toxic or unscored doses. Some doses without a T/C left all or most animals alive at the check, yet need not have been tolerated: survival well below the control is almost never listed, so the zero probably covers shortened survival too. Counts of survivors are from the toxicity check (mostly the fifth day) where no day follows; animals may have died later. Schedule codes are those of the source, taken here to give the interval after Q, in days (D) or hours (H), and the number of doses after X. For survival time, this PubChem deposit counts one and a half times the control or more as active, and values a quarter to a half above the control carry no call in these data; other NCI protocols may use other cut-offs. Some entries were tested several times; their values stand side by side, smallest first. Some schedules carry Z or #; the key to these is not given.

System: L1210 leukemia ip in BDF1 mice, survival T/C
Experiment: NCI In Vivo Anticancer Drug Screen. Data for tumor model L1210 Leukemia (intraperitoneal) in B6D2F1 (BDF1) mice
Details: higher T/C = longer survival

`Cn1cnc([N+](=O)[O-])c1Sc1nc(N)nc2nc[nH]c12` was tested, and the T/C (T/C endpoint: mean survival time, dose: 2.5 mg/kg/injection, schedule: Q01DX Z (sc), vehicle: saline) was 133 % of control, the T/C (T/C endpoint: mean survival time, dose: 5.0 mg/kg/injection, schedule: Q01DX006 (iv), vehicle: saline) was 126 % of control and the T/C (T/C endpoint: mean survival time, dose: 5.0 mg/kg/injection, schedule: Q01DX009 (ip), vehicle: saline) was 140 % of control. The T/C (T/C endpoint: mean survival time, dose: 5.0 mg/kg/injection, schedule: Q01DX Z (im), vehicle: saline) was 141 % of control, the T/C (T/C endpoint: mean survival time, dose: 6.1 mg/kg/injection, schedule: Q01DX001 (ip), vehicle: saline) was 141 % of control and the T/C (T/C endpoint: mean survival time, dose: 6.25 mg/kg/injection, schedule: Q01DX001 (oral), vehicle: saline) was 136 % of control. The T/C (T/C endpoint: mean survival time, dose: 10.0 mg/kg/injection, schedule: Q01DX006 (iv), vehicle: saline) was 143 % of control, the T/C (T/C endpoint: mean survival time, dose: 10.0 mg/kg/injection, schedule: Q01DX009 (ip), vehicle: saline) was 133 and 147 % of control and the T/C (T/C endpoint: mean survival time, dose: 10.0 mg/kg/injection, schedule: Q01DX010 (ip), vehicle: saline) was 144 % of control. For the same compound, the T/C (T/C endpoint: mean survival time, dose: 10.0 mg/kg/injection, schedule: Q01DX Z (im), vehicle: saline) was 132 % of control, the T/C (T/C endpoint: mean survival time, dose: 10.0 mg/kg/injection, schedule: Q01DX Z (ip), vehicle: saline) was 148 % of control and the T/C (T/C endpoint: mean survival time, dose: 10.0 mg/kg/injection, schedule: Q01DX Z (sc), vehicle: saline) was 143 % of control. The T/C (T/C endpoint: mean survival time, dose: 12.5 mg/kg/injection, schedule: Q01DX001 (oral), vehicle: saline) was 145 % of control, the T/C (T/C endpoint: mean survival time, dose: 20.0 mg/kg/injection, schedule: Q01DX Z (im), vehicle: saline) was 148 % of control and the T/C (T/C endpoint: mean survival time, dose: 20.0 mg/kg/injection, schedule: Q01DX Z (ip), vehicle: saline) was 125 % of control. For the same compound, the T/C (T/C endpoint: mean survival time, dose: 20.0 mg/kg/injection, schedule: Q01DX Z (oral), vehicle: saline) was 147 % of control, the T/C (T/C endpoint: mean survival time, dose: 20.0 mg/kg/injection, schedule: Q01DX Z (sc), vehicle: saline) was 134 % of control and the T/C (T/C endpoint: mean survival time, dose: 25.0 mg/kg/injection, schedule: Q01DX001 (ip), vehicle: saline) was 137 % of control. The T/C (T/C endpoint: mean survival time, dose: 40.0 mg/kg/injection, schedule: Q01DX Z (im), vehicle: saline) was 135 % of control, the T/C (T/C endpoint: mean survival time, dose: 80.0 mg/kg/injection, schedule: Q01DX Z (im), vehicle: saline) was 125 % of control and the T/C (T/C endpoint: mean survival time, dose: 100.0 mg/kg/injection, schedule: Q01DX001 (ip), vehicle: saline) was 139 % of control. The T/C (T/C endpoint: mean survival time, dose: 117.0 mg/kg/injection, schedule: Q01DX001 (ip), vehicle: carboxymethylcellulose (CMC)) was 144 % of control, the T/C (T/C endpoint: mean survival time, dose: 400.0 mg/kg/injection, schedule: Q01DX001 (ip), vehicle: saline) was 139 % of control and the T/C (T/C endpoint: mean survival time, dose: 480.0 mg/kg/injection, schedule: Q03DX005 (oral), vehicle: saline) was 131 % of control. For the same compound, the T/C (T/C endpoint: median survival time, dose: 2.5 mg/kg/injection, schedule: Q01DX009 (ip), vehicle: saline) was 145 % of control and the T/C (T/C endpoint: median survival time, dose: 10.0 mg/kg/injection, schedule: Q01DX009 (ip), vehicle: saline) was 137 % of control.
In the case of `OC(CI)C(O)C(O)C(O)CI` (stereo not drawn), the T/C (T/C endpoint: mean survival time, dose: 400.0 mg/kg/injection, schedule: Q01DX009 (ip), vehicle: other) is reported as 128 % of control.
With `Nc1ncnc2c1ncn2C1CC(COP(=O)(O)O)C(O)C1O` (stereo not drawn) the survivor count (T/C endpoint: mean survival time, dose: 300.0 mg/kg/injection, schedule: Q01DX001 (ip), vehicle: saline) was 5 of 6.
For `COc1ccc(CN2CCCN(Cc3ccc(OC)cc3)C2c2ccc(OC)cc2)cc1`, the survivor count (T/C endpoint: mean survival time, dose: 100.0 mg/kg/injection, schedule: Q01DX009 (ip), vehicle: saline with Tween-80) was 6 of 6 and the survivor count (T/C endpoint: mean survival time, dose: 400.0 mg/kg/injection, schedule: Q01DX009 (ip), vehicle: saline with Tween-80) was 6 of 6.
`CC(C)(O)CNS(=O)(=O)c1ccc(Br)cc1` was tested, and the survivor count (T/C endpoint: mean survival time, dose: 400.0 mg/kg/injection, schedule: Q01DX009 (ip), vehicle: Klucel (hydroxypropylcellulose) (HPC)) was 0 of 6.
In the case of `OC(CNc1ccnc2cc(Cl)ccc12)CNC1CCCCC1` (stereo not drawn), the survivor count (T/C endpoint: mean survival time, dose: 150.0 mg/kg/injection, schedule: Q01DX001 (ip), vehicle: other) is reported as 0 of 6 and the survivor count (T/C endpoint: mean survival time, dose: 300.0 mg/kg/injection, schedule: Q01DX001 (ip), vehicle: other) is reported as 1 of 6.
